Article PMC3245299
No constants are given. Whether binding was seen depends on the method and setting. In cells and extracts the contact can be indirect. A yes stands for co-enrichment or nearness to the bait. Other partners may have been found. A no says only that the protein was not detected with the bait.

Amino acid sequences for entries named in this document (tags omitted). A change or cut given only in a name is not applied to a line headed by its entry. Chains listed by the source or under a name are the forms on record and can include a tag or linker. Residues count along the entry.
UniProt P0C6J7, residues 229-262: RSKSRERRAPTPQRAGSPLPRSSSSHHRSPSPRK
UniProt P06748: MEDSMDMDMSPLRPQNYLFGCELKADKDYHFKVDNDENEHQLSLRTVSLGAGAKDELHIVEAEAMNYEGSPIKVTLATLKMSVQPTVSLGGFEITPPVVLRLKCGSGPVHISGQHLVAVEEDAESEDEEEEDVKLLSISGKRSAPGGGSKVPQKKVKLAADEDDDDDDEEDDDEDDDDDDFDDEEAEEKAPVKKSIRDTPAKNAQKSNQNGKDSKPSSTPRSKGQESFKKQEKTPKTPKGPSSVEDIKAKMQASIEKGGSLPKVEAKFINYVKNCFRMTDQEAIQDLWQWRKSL
I2PP2A (SET, Taf-1β), endogenous in HEK293T cells (Q01105-2, form named): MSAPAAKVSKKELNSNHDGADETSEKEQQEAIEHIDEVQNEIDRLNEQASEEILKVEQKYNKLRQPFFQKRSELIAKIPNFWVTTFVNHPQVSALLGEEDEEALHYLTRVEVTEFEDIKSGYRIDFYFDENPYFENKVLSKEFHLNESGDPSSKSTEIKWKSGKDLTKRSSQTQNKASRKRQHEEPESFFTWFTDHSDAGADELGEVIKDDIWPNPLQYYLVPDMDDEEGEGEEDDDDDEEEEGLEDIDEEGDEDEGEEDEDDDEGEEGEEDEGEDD

Target: GST-DCC229 (GST fused to DHBc CTD residues 229-262, WT), expressed in HEK293T (duck hepatitis B virus (DHBV)) (UniProt P0C6J7)
Assay: affinity purification with mass spectrometry; GST-DCC fusion proteins expressed in HEK293T, purified from RNase A-treated lysates on GSH affinity resin; co-purifying bands seen by Coomassie staining, excised, trypsinised in gel and identified by mass spectrometry (Fig. 4)

Substance | binding
B23 (nucleophosmin, NPM1), endogenous in HEK293T cells (from UniProt P06748 1-294) | no binding
I2PP2A (SET, Taf-1β), endogenous in HEK293T cells (from UniProt Q01105-2 1-277) | no binding
